# Patent publication US20220354911A1, “TREATMENT OF TUMORS BY A COMBINATION OF AN ONCOLYTIC ADENOVIRUS, A CDK4/6 INHIBITOR AND A FURTHER THERAPEUTICALLY ACTIVE AGENT” (KLINIKUM RECHTS DER ISAR DER TECHNISCHEN UNIVERSITÄT MÜNCHEN, priority 2019, published 2022)
# For at least one compound, name, drawing or mass did not settle the structure.
# Columns and labels:
# [1] = tested on: T24 bladder cancer cells; assay: Cytopathic effect with Ad-Delta24 and Onyx-015 plus PD0332991; format: cell-based, human; conditions: T24, 20 MOI Ad-Delta24 or Onyx-015, 500 nM PD0332991, 4 days post infection
# [2] = tested on: XVir-N-31; assay: XVir-N-31 replication by fiber qPCR, Nutlin-3a and Palbociclib, T24shRb cells; format: cell-based, Mastadenovirus, Type C, Serotype 5; conditions: Rb-negative T24shRb cells, MOI 20, Palbociclib 500 nM, Nutlin-3a 30 μM
# [3] = tested on: UMUC-3 and RT112; assay: FACS cell cycle analysis, JQ-1 and Palbociclib; format: cell-based, human; conditions: 100 or 300 nM JQ-1, 500 nM Palbociclib
# Protocol: For such purpose, 5×10^4 cells UMUC-3 and RT112, respectively, were seeded in 6-well plates and 24 hours later treated with appropriate inhibitors. 1 day later, at approximately 80% confluency, cells were washed with PBS, trypsinized, washed again and fixated with icecold 80% ethanol. For cell cycle analysis, samples were incubated with the DNA-intercalating dye 7-aminoactinomycine D (7-AAD) and measured via FACS analysis. Evaluation of measured data was performed via the software FlowJo.
# [4] = tested on: T24 cells; assay: Potency assay/SRB staining, XVir-N-31, Nutlin-3a and Palbociclib; format: cell-based, human; conditions: T24, 30 μM Nutlin-3a, 500 nM Palbociclib, four dpi
# Protocol: (§1) Cell killing using XVir-N-31 alone and in combination with small molecule inhibitors was analysed in 12-well plates. […] At 1 hpi, complete medium with Palbociclib was added to the cells pretreated with Palbociclib. To the control as well as to the Nutlin treated cell complete medium without inhibitors was added.
# A potency assay using T24 cells was carried out for determining the cell killing effect of XVir-N-31 alone, XVir-N-31 with Nutlin-3a, XVir-N-31 with Palbociclib, and XVir-N-31 with both Nutlin-3a and Palbociclib.
# [5] = tested on: T24shRB cells; assay: as above; format: cell-based, human; conditions: 30 μM Nutlin-3a, 500 nM Palbociclib, four dpi
# Protocol: as §1
# The same potency assay as subject to Example 27.2 was carried out using T24shRB cells. T24shRB cells are T24 cells without Rb expression. Such lacking Rb expression was generated by means of lentiviral transfection, wherein the lentivirus coded for shRNA directed to Rb. The lentivirus vector used was pLKO-RB1-shRNA19 (obtained from Addgene, Watertown, Mass. 02472, USA), the sequence of the shRNA was as follows […] (SEQ ID NO: 39). The procedure is also described by Michaud K et al. (Cancer Res. 2010 Apr. 15. 70(8):3228-38).
# [6] = tested on: T24 cells; assay: GFP expression of E1-deleted adenovirus (Ad-GFP) with Palbociclib, fluorescence microscopy; format: cell-based, human
# [7] = tested on: XVir-N-31; assay: XVir-N-31 replication by fiber qPCR, Nutlin-3a and Palbociclib, T24 cells; format: cell-based, Mastadenovirus, Type C, Serotype 5; conditions: MOI 20, Palbociclib 500 nM
# [8] = tested on: XVir-N-31; assay: Titer test on Hek293 cells, PD-0332991 plus XVir-N-31 in RB positive and negative lines; format: cell-based, Mastadenovirus, Type C, Serotype 5; conditions: PD-0332991 IC50 concentration, XVir-N-31, 3 dpi
# [9] = tested on: RB positive and RB negative bladder cancer derived cell lines; assay: SRB cell viability, PD-0332991 plus XVir-N-31 in RB positive and RB negative lines; format: cell-based, human; conditions: 24 hours pretreatment with IC50 concentration of PD-0332991, XVir-N-31 infection, four dpi
# [10] = tested on: RT112, T24 and UMUC; assay: Adenovirus hexon staining with Palbociclib; format: cell-based, human; conditions: 500 nM Palbociclib, AD-WT infection, 48 hours post infection
# [11] = tested on: E1A, E1B-55k, DBP (E2A) and Hexon; assay: Western blot of viral protein expression in Ad-WT and XVir-N-31 infected T24 cells; format: cell-based, Mastadenovirus, Type C, Serotype 5; conditions: MOI of 15, 500 nM PD, 12, 24 and 36 hpi
# [12] = tested on: XVir-N-31; assay: Fiber DNA qPCR in RB positive bladder cancer cell lines; format: cell-based, Mastadenovirus, Type C, Serotype 5; conditions: T24 MOI 40, UMUC3 and 253J MOI 20, RT112 MOI 400; 24-48 hpi
compound,measurement,setting,value
CC(=O)c1c(C)c2cnc(Nc3ccc(N4CCNCC4)cn3)nc2n(C2CCCC2)c1=O [Palbociclib],cell killing (cytopathic effect),[1],increased cell killing
same,viral DNA relative to the control,[2],less pronounced effect
same,cell cycle,[3],potent arrest in G1-phase
same,cell killing by XVir-N-31,[4],increased cell killing by XVir-N-31
same,killing of Rb-negative cells by XVir-N-31,[5],not effective
same,GFP expression,"[6]; 100 MOI Ad-GFP, 500 nM PD0332991 one day before infection and during incubation",increase in GFP expression
same,GFP expression,"[6]; Ad-minus/GFP, 500 nM Palbociclib 24 hours before and 1 hour post infection, 48 hours post infection",strong increase of GFP expression
same,relative fibre DNA,[7],already high
same,viral particle formation,[8],only increased in RB positive cell lines
same,cell growth and cell viability,[9],only cell lines positive for RB showed a significant decrease
same,hexon positive cells,[10],increased hexon positive cells significantly
same,"expression level of viral proteins (E1A, E1B-55k, DBP (E2A) and Hexon)",[11],expressed at higher level
same,viral replication (fiber DNA copies),[12],increases viral replication dramatically
